Source: patent US20230270832A1, “MAGEA1 IMMUNOGENIC PEPTIDES, BINDING PROTEINS RECOGNIZING MAGEA1 IMMUNOGENIC PEPTIDES, AND USES THEREOF” (TScan Therapeutics, Inc., priority 2021, published 2023)
No constants are given. Whether binding was seen depends on the method and setting. Some entries that bind do so weakly or less than the wild type.

B1: MAGEA1 TCR 32-39 (TCR, V domains shown)
V domain 1: DQQVKQNSPSLSVQEGRISILNCDYTNSMFDYFLWYKKYPAEGPTFLISISSIKDKNEDGRFTVFLNKSAKHLSLHIVPSQPGDSAVYFCAASAQNNDMRFGAGTRLTVKP
V domain 2: NAGVMQNPRHLVRRRGQEARLRCSPMKGHSHVYWYRQLPEEGLKFMVYLQKENIIDESGMPKERFSAEFPKEGPSILRIQQVVRGDSAAYFCASSPSYEQYFGPGTRLTVTE
B2: MAGEA1 TCR 32-41 (TCR, V domains shown)
V domain 1: QLLEQSPQFLSIQEGENLTVYCNSSSVFSSLQWYRQEPGEGPVLLVTVVTGGEVKKLKRLTFQFGDARKDSSLHITAAQPGDTGLYLCAGDESISYGKLTFGQGTILTVHP
V domain 2: DAGVIQSPRHEVTEMGQEVTLRCKPISGHDYLFWYRQTMMRGLELLIYFNNNVPIDDSGMPEDRFSAKMPNASFSTLKIQPSEPRDSAVYFCASSFLGWNEKLFFGSGTQLSVLE

Target: MAGEA1 peptide VRFFFPSL (SEQ ID NO: 1) presented by HLA-C*07:02 (human)
Assay: told of the functional T cell screens of the Examples; no direct binding assay was done

Row | Binder | binding
1 | B1 | binds
2 | B2 | binds
